Reference: PubChem BioAssay AID743454 (Peter MacCallum Cancer Centre, 2014)
This is an unselected part of about 18,000 reagents. Of all reagents, 450 (2.5%) were called active. 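Single biological run; no consistent viability z cut-off exists, so the class columns, not z-scores, define the calls.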 No sequences are given here.

Assay: 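Search for knock-downs that restore vorinostat killing in resistant colon cancer cells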 (primary screen)
Cells: human HCT116-VR colon cancer cells, selected for vorinostat resistance
Knock-down reagent: siRNA pool against human genes, 40 nM siRNA pool
Duration: vorinostat for 24 h, read-out about 72 h after transfection
Challenge: vorinostat at 2.5 µM final
Detection: 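Cell viability by CellTiter-Fluor and caspase 3/7 activity by luminescence, each scaled to mock wells per plate, duplicates averaged, then robust z-scored over all plates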
Scale: viability robust z-score: higher = more viable cells than screen typical; caspase robust z-score: higher = more caspase 3/7 activity than screen typical
Active means: 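Hits are knock-downs in viability class RV1/RV2 or caspase class CA1/CA2, excluding ones that killed cells in the no-drug cell-count arm; hits then retested with single siRNAs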

gene symbol | viability hit class | caspase hit class | viability robust z-score | caspase robust z-score | outcome
LMAN2L (lectin, mannose binding 2 like) | no change | no change | 0.04 | -0.78 | inactive
RSPH6A (radial spoke head 6 homolog A) | no change | no change | 0.02 | -0.36 | inactive
ZNF704 (zinc finger protein 704) | no change | no change | -0.7 | 0.18 | inactive
SERPIND1 (serpin family D member 1) | no change | no change | -0.81 | 2.09 | inactive
SNX2 (sorting nexin 2) | no change | no change | -0.1 | -1.09 | inactive
SPATA31G1 (SPATA31 subfamily G member 1) | no change | no change | -0.43 | 2.38 | inactive
CLN6 (CLN6 transmembrane ER protein) | no change | no change | 1.25 | -0.94 | inactive
BRMS1L (BRMS1 like transcriptional repressor) | no change | no change | 0.99 | 0.54 | inactive
TSHR (thyroid stimulating hormone receptor) | no change | no change | 0.9 | -0.66 | inactive
TMEM81 (transmembrane protein 81) | no change | no change | -0.4 | -0.34 | inactive
LY6G6D (lymphocyte antigen 6 family member G6D) | no change | no change | -2.12 | -0.85 | inactive
SPANXA1 | no change | no change | -2.57 | -0.4 | inactive
GNAS (GNAS complex locus) | no change | no change | -1.29 | 1.9 | inactive
KRT35 (keratin 35) | no change | no change | 0.11 | -1 | inactive
RND1 (Rho family GTPase 1) | no change | no change | 0.96 | -0.62 | inactive
ZGPAT (zinc finger CCCH-type and G-patch domain containing) | no change | no change | -1.69 | -0.52 | inactive
KRTAP12-4 (keratin associated protein 12-4) | no change | no change | -0.26 | -0.39 | inactive
PPP1R15A (protein phosphatase 1 regulatory subunit 15A) | no change | no change | 0.78 | 0.03 | inactive
SCN9A (sodium voltage-gated channel alpha subunit 9) | no change | no change | -1.88 | -0.78 | inactive
RPS11 (ribosomal protein S11) | no change | no change | -4.64 | -1.11 | inactive
HCFC2 (host cell factor C2) | no change | no change | 0.39 | 0.08 | inactive
NUDT4 (nudix hydrolase 4) | no change | no change | 1.57 | 1.2 | inactive
ID2 (inhibitor of DNA binding 2) | no change | no change | -0.04 | -0.89 | inactive
TAS1R2 (taste 1 receptor member 2) | no change | no change | -2.1 | 4.26 | inactive
MSX2 (msh homeobox 2) | no change | no change | 0.18 | -0.12 | inactive
RCBTB2 (RCC1 and BTB domain containing protein 2) | no change | no change | -0.11 | -0.94 | inactive
SLC4A8 | no change | no change | 0.42 | 0.29 | inactive
OR2L13 (olfactory receptor family 2 subfamily L member 13) | no change | no change | 0.32 | -0.92 | inactive
ZNF512B (zinc finger protein 512B) | no change | no change | -0.16 | -1.12 | inactive
C1QTNF4 (C1q and TNF related 4) | no change | no change | -1.19 | 2.94 | inactive
ADH5 (alcohol dehydrogenase 5 (class III), chi polypeptide) | no change | no change | -1.89 | 0.55 | inactive
YARS1 (tyrosyl-tRNA synthetase 1) | no change | no change | 0.2 | 0.8 | inactive
SRXN1 (sulfiredoxin 1) | no change | no change | 0.35 | -0.79 | inactive
RCL1 (RNA terminal phosphate cyclase like 1) | no change | no change | -0.98 | -0.36 | inactive
ANGPTL3 (angiopoietin like 3) | no change | no change | 1.48 | -0.26 | inactive
DDX28 (DEAD-box helicase 28) | no change | no change | 1.19 | -0.18 | inactive
RACGAP1 (Rac GTPase activating protein 1) | no change | no change | -0.38 | 1.92 | inactive
ZNF37A (zinc finger protein 37A) | no change | no change | -0.5 | 0.3 | inactive
SF3B2 (splicing factor 3b subunit 2) | no change | no change | -3.59 | 2.58 | inactive
A1CF (APOBEC1 complementation factor) | no change | no change | 1.4 | -0.16 | inactive
PKDCC (protein kinase domain containing, cytoplasmic) | no change | no change | -0.45 | 3.21 | inactive
NFIX (nuclear factor I X) | no change | no change | -2.17 | 1.98 | inactive
GANAB (glucosidase II alpha subunit) | no change | no change | 0.3 | -0.76 | inactive
H4C5 (H4 clustered histone 5) | no change | no change | 1.32 | -0.64 | inactive
SLC51B (SLC51 subunit beta) | no change | no change | 0.3 | 1.81 | inactive
GPR22 (G protein-coupled receptor 22) | no change | no change | 1.21 | 0.01 | inactive
JMJD4 (jumonji domain containing 4) | no change | no change | -0.16 | -1.01 | inactive
BOLA1 (bolA family member 1) | no change | no change | -1.02 | -0.14 | inactive
CDK4 (cyclin dependent kinase 4) | no change | no change | -0.11 | -0.08 | inactive
KCNQ2 (potassium voltage-gated channel subfamily Q member 2) | no change | no change | -1.1 | 2.66 | inactive
PADI1 (peptidyl arginine deiminase 1) | no change | no change | 0.04 | -0.4 | inactive
PROM2 (prominin 2) | no change | no change | -0.38 | 1.59 | inactive
TMEM150C (transmembrane protein 150C) | no change | no change | -0.04 | -0.38 | inactive
PIWIL2 (piwi like RNA-mediated gene silencing 2) | no change | no change | 0.26 | 0.52 | inactive
NFATC4 (nuclear factor of activated T cells 4) | no change | no change | -0.93 | 3.34 | inactive
GINS1 (GINS complex subunit 1) | no change | no change | 0.45 | -1.11 | inactive
BPHL (biphenyl hydrolase like) | no change | no change | 0.82 | -0.66 | inactive

Targets listed so far whose gene name begins with Z or z:
gene symbol | viability hit class | caspase hit class | viability robust z-score | caspase robust z-score | outcome
ZNF704 (zinc finger protein 704) | no change | no change | -0.7 | 0.18 | inactive
ZGPAT (zinc finger CCCH-type and G-patch domain containing) | no change | no change | -1.69 | -0.52 | inactive
ZNF512B (zinc finger protein 512B) | no change | no change | -0.16 | -1.12 | inactive
ZNF37A (zinc finger protein 37A) | no change | no change | -0.5 | 0.3 | inactive
